Experimental data published in patent publication EP0417790B1, “S-triazolo[3,4-i]purine derivatives” (Kyowa Hakko Kogyo Co., Ltd., priority 1989, dated 1991).
Like-named read-outs stand apart in the source and are kept apart here.

Tested on: Wistar male rats
Assay: Diuretic activity
Type: in vivo
Details: Rattus norvegicus, po, 25 mg/kg orally, urine taken for 6 hours, relative value for control (100)
Method: Wistar male rats weighing 150 to 300 g were used after fasting for 18 hours. […] The test was performed using 3 groups per test compound, and each group consists of 3 animals. The urine was metered by a measuring cylinder and electrolytes (Na^+ and K^+) in the urine were analyzed by flame photometer (model […]: Hitachi Ltd.). Parameters in Table 3 are represented by relative value for control.

With `NS(=O)(=O)c1cc(C(=O)O)c(NCc2ccco2)cc1Cl` [Furosemide, reference compound] the response vs control in vivo at 25 mg/kg (read-out: Excretion of K^+) was 157%, the response vs control in vivo at 25 mg/kg (read-out: Excretion of Na^+) was 164% and the response vs control in vivo at 25 mg/kg (read-out: Urine volume) was 175%.
